# In all, about 1,600 compounds were measured (“Hit score”: median about 0.13, highest 2% from about 0.46 on). This is one part of the list.
# Test system: SARS-CoV-2
# Experiment: Antiviral activity against SARS-CoV-2 (USA-WA1/2020 strain) measured by imaging in HRCE cells at MOI 0.4 after 96 hrs (reported as hit score from 0-1 for on-disease vs off-disease activity: scores >0.6 considered hits)
# Assay type: functional, Homo sapiens
row,SMILES,Hit score
1,Cc1ccc(NC2=NCCN2)c(Cl)c1 [TOLONIDINE],0.2301
2,NCCCC(N)(C(=O)O)C(F)F (centres undefined) [EFLORNITHINE],0.2258
3,C[C@]12CC[C@H]3[C@@H](CC[C@@]45O[C@@H]4C(O)=C(C#N)C[C@]35C)[C@@H]1CC[C@@H]2O [TRILOSTANE],0.3178
4,CCCCCCCCCCCC1=C(O)C(=O)C=C(O)C1=O [EMBELIN],0.1645
5,NC(=O)NC1NC(=O)NC1=O (centres undefined) [ALLANTOIN],0.1646
6,O=C1CCc2ccc(OCCCCN3CCN(c4cccc(Cl)c4Cl)CC3)cc2N1 [ARIPIPRAZOLE],0.05852
7,CN(C)CCOC(c1ccc(Cl)cc1)c1ccccn1 (centres undefined) [CARBINOXAMINE],0.1089
8,CS(=O)(=O)O.O.O=C(O[C@@H]1C[C@@H]2C[C@H]3C[C@H](C1)N2CC3=O)c1c[nH]c2ccccc12 [DOLASETRON MESYLATE],0.1048
9,CC/C(=C(\c1ccccc1)c1ccc(OCCN(C)C)cc1)c1ccccc1 [TAMOXIFEN],0.04997
10,NCc1ccc(S(N)(=O)=O)cc1 [MAFENIDE],0.194
11,C[N+]1(CC2CC2)[C@@H]2C[C@@H](OC(=O)[C@H](CO)c3ccccc3)C[C@H]1[C@@H]1O[C@@H]12 (some centres undefined) [CIMETROPIUM],0.08586
12,CCOC(=O)[N-]c1c[n+](N2CCOCC2)no1 [MOLSIDOMINE],0.2896
13,CC[N+](CC)(CC)CCOc1cccc(OCC[N+](CC)(CC)CC)c1OCC[N+](CC)(CC)CC [GALLAMINE],0.08324
14,C=C(c1ccc(C(=O)O)cc1)c1cc2c(cc1C)C(C)(C)CCC2(C)C [BEXAROTENE],0.3402
15,COc1cc2ncnc(Nc3ccc(F)c(Cl)c3)c2cc1OCCCN1CCOCC1 [GEFITINIB],0.178
16,CC(C)[C@H](N)C(=O)OCC(CO)OCn1cnc2c(=O)[nH]c(N)nc21 (some centres undefined) [VALGANCICLOVIR],0.1497
17,CC[C@@H]([C@H](C)O)n1ncn(-c2ccc(N3CCN(c4ccc(OC[C@@H]5CO[C@@](Cn6cncn6)(c6ccc(F)cc6F)C5)cc4)CC3)cc2)c1=O [POSACONAZOLE],0.1108
18,CCN1CCC[C@H]1CNC(=O)c1c(O)c(Cl)cc(Cl)c1OC [RACLOPRIDE],0.02798
19,CCc1ccc(C(=O)C(C)CN2CCCCC2)cc1 (centres undefined) [EPERISONE],0.4436
20,CC(C)Cc1ccc(C(C)C(=O)O)cc1 (centres undefined) [IBUPROFEN],0.09253
21,COc1ccc(CN2CCN(C(c3ccc(F)cc3)c3ccc(F)cc3)CC2)c(OC)c1OC [LOMERIZINE],-0.04979
22,C[C@]12CCC3=C4CCC(=O)C=C4CC[C@H]3[C@@H]1CC[C@@]2(O)CC#N [DIENOGEST],0.1799
23,Cc1cc(N2CCN([C@@H]3CN[C@H](C(=O)N4CCSC4)C3)CC2)n(-c2ccccc2)n1 [TENELIGLIPTIN],0.3043

row,SMILES,Hit score
1,Cc1cccc(-c2nn(C(=S)Nc3ccccc3)cc2-c2ccnc3ccccc23)n1,-0.5516
2,CCN1CCN(Cc2ccc(Nc3ncc(F)c(-c4cc(F)c5nc(C)n(C(C)C)c5c4)n3)nc2)CC1 [ABEMACICLIB],0.0735
3,Nc1nc2[nH]cc(CCc3ccc(C(=O)N[C@@H](CCC(=O)O)C(=O)O)cc3)c2c(=O)[nH]1 [PEMETREXED],0.2782
4,CC(C)(C)NC[C@H](O)COc1ccccc1C1CCCC1 [PENBUTOLOL],0.4905
5,CC[C@H]1[C@@H]2C[C@H]3[C@@H]4N(C)c5ccccc5[C@]45C[C@@H]([C@@H]2[C@H]5O)N3[C@@H]1O [AJMALINE],0.06447
6,O=C(OCCOCCO)c1ccccc1Nc1cccc(C(F)(F)F)c1 [ETOFENAMATE],0.02454
7,O=C(O)c1cc2ccccc2c(Cc2c(O)c(C(=O)O)cc3ccccc23)c1O [PAMOIC ACID],0.0734
8,Cc1cnc(C(=O)O)c[n+]1[O-] [ACIPIMOX],0.138
9,C=C1/C(=C\C=C2/CCC[C@]3(C)[C@@H]([C@H](C)CC[C@@H](O)C(C)C)CC[C@@H]23)C[C@@H](O)C[C@@H]1O [TACALCITOL],0.4469
10,O=c1c(O)c(-c2ccc(O)c(O)c2)oc2cc(O)cc(O)c12 [QUERCETIN],0.4241
11,CCN1CCN(C(=O)N[C@@H](C(=O)N[C@@H]2C(=O)N3C(C(=O)O)=C(CSc4nnnn4C)CS[C@H]23)c2ccc(O)cc2)C(=O)C1=O [CEFOPERAZONE],0.1928
12,Cc1[nH]c2ccccc2c1CCNCc1ccc(/C=C/C(=O)NO)cc1 [PANOBINOSTAT],-0.1816
13,CC(C)[N+]1(C)[C@@H]2CC[C@H]1C[C@@H](OC(=O)C(CO)c1ccccc1)C2 (some centres undefined) [IPRATROPIUM],0.06429
14,COc1ccnc(C[S+]([O-])c2nc3cc(OC(F)F)ccc3[nH]2)c1OC (centres undefined) [PANTOPRAZOLE],0.1062
15,Nc1ccn([C@@H]2O[C@H](CO)[C@@H](O)[C@@H]2O)c(=O)n1 [CYTARABINE],-0.0665
16,Nc1ccc(S(=O)(=O)Nc2ccccn2)cc1 [SULFAPYRIDINE],0.1383
17,C[N+]1([O-])CCN(C2=Nc3cc(Cl)ccc3Nc3ccccc32)CC1,0.08141
18,O=c1ccc2ccccc2o1 [COUMARIN],0.2302
19,CCCCOc1cc(CC2CNC(=O)N2)ccc1OC (centres undefined) [RO-201724],0.2283
20,C/C(=C(/CCOC(=O)C(C)C)SS/C(CCOC(=O)C(C)C)=C(\C)N(C=O)Cc1cnc(C)nc1N)N(C=O)Cc1cnc(C)nc1N [SULBUTIAMINE],0.1859
21,CCOC(=O)c1c(CSc2ccccc2)n(C)c2cc(Br)c(O)c(CN(C)C)c12 [UMIFENOVIR],0.02898
22,C#C[C@]1(O)CC[C@H]2[C@@H]3CCC4=CC(=O)CC[C@@H]4[C@H]3CC[C@@]21C [NORETHINDRONE],0.1388
23,CC(C(=O)O)c1ccc2c(c1)CC(=O)c1ccccc1S2 (centres undefined) [ZALTOPROFEN],0.1748

row,SMILES,Hit score
1,Cc1nc(-c2ccc(OCC(C)C)c(C#N)c2)sc1C(=O)O [FEBUXOSTAT],0.1568
2,CC(COc1ccccc1)NC(C)C(O)c1ccc(O)cc1 (centres undefined) [ISOXSUPRINE],0.0468
3,CNC(=O)Oc1ccc2c(c1)[C@]1(C)CCN(C)[C@@H]1N2C [PHYSOSTIGMINE],0.353
4,CC[C@@H](C(=O)[C@@H](C)[C@@H](O)[C@H](C)[C@@H]1O[C@@H]([C@@H](CC)C(=O)O)CC[C@@H]1C)[C@H]1O[C@]2(C=C[C@@H](O)[C@]3(CC[C@@](C)([C@H]4CC[C@](O)(CC)[C@H](C)O4)O3)O2)[C@H](C)C[C@@H]1C [SALINOMYCIN],0.357
5,CCOC(=O)C1=C(COCCN)NC(C)=C(C(=O)OC)[C@@H]1c1ccccc1Cl [LEVAMLODIPINE],-0.04073
6,CCOC(=O)NNc1nncc2ccccc12 [TODRALAZINE],0.1079
7,CCCCN1CCCCC1C(=O)Nc1c(C)cccc1C (centres undefined) [BUPIVACAINE],0.1503
8,CC(C)[C@@]1(NC(=O)[C@@H]2C[C@@H]3c4cccc5[nH]cc(c45)C[C@H]3N(C)C2)O[C@@]2(O)[C@@H]3CCCN3C(=O)[C@H](Cc3ccccc3)N2C1=O.CS(=O)(=O)O [DIHYDROERGOCRISTINE MESYLATE],0.1553
9,NS(=O)(=O)c1cc(-c2nnn[nH]2)c(NCc2cccs2)cc1Cl [AZOSEMIDE],0.09549
10,COc1cc(NC(C)CCCN)c2ncccc2c1 (centres undefined) [PRIMAQUINE],0.08859
11,CCCCC1(COC(=O)CCC(=O)O)C(=O)N(c2ccccc2)N(c2ccccc2)C1=O [SUXIBUZONE],0.0562
12,O=c1[nH]c(=O)n([C@H]2C[C@H](O)[C@@H](CO)O2)cc1Br [BROXURIDINE],0.06259
13,CCn1cc(C(=O)O)c(=O)c2ccc(-c3ccncc3)cc21 [ROSOXACIN],0.1616
14,NC(N)=Nc1nc(CSCC/C(N)=N/S(N)(=O)=O)cs1 [FAMOTIDINE],0.1617
15,Cc1cc(-c2ccccc2)nnc1NCCN1CCOCC1 [MINAPRINE],0.06763
16,CC(CN(C)C)CN1c2ccccc2Sc2ccc(C#N)cc21 (centres undefined) [CYAMEMAZINE],0.06709
17,CN(Cc1cnc2nc(N)nc(N)c2n1)c1ccc(C(=O)N[C@@H](CCC(=O)O)C(=O)O)cc1 [METHOTREXATE],0.1078
18,CCN(CC)CCNc1ccc(CO)c2sc3ccccc3c(=O)c12 [HYCANTHONE],0.04803
19,CCCCCCCCC(=O)NCc1ccc(O)c(OC)c1 [NONIVAMIDE],0.2361
20,C[N+]1(C)CCC(OC(=O)C(O)(c2ccccc2)C2CCCC2)C1.[Br-] (centres undefined) [GLYCOPYRRONIUM BROMIDE],0.1715
21,COC(=O)[C@H]1[C@H]2C[C@@H]3c4[nH]c5ccccc5c4CCN3C[C@H]2C[C@@H](OC(=O)c2cc(OC)c(OC)c(OC)c2)[C@@H]1OC [DESERPIDINE],0.0138
22,CSc1ccc(OCc2ncc([N+](=O)[O-])n2C)cc1 [FEXINIDAZOLE],0.1901
23,CN(C)c1ccc(O)c2c1C[C@H]1C[C@H]3[C@H](N(C)C)C(O)=C(C(N)=O)C(=O)[C@@]3(O)C(O)=C1C2=O [MINOCYCLINE],0.178

# Look-ups from the entries so far.
# Hit score with `CC[C@@H](C(=O)[C@@H](C)[C@@H](O)[C@H](C)[C@@H]1O[C@@H]([C@@H](CC)C(=O)O)CC[C@@H]1C)[C@H]1O[C@]2(C=C[C@@H](O)[C@]3(CC[C@@](C)([C@H]4CC[C@](O)(CC)[C@H](C)O4)O3)O2)[C@H](C)C[C@@H]1C` [SALINOMYCIN] is entered as 0.357
# Hit score with `CC(CN(C)C)CN1c2ccccc2Sc2ccc(C#N)cc21` (centres undefined) [CYAMEMAZINE] is entered as 0.06709
# Hit score with `CN(Cc1cnc2nc(N)nc(N)c2n1)c1ccc(C(=O)N[C@@H](CCC(=O)O)C(=O)O)cc1` [METHOTREXATE] is entered as 0.1078
# Hit score with `CCCCC1(COC(=O)CCC(=O)O)C(=O)N(c2ccccc2)N(c2ccccc2)C1=O` [SUXIBUZONE] is entered as 0.0562

# Source: ChEMBL document CHEMBL4303122, “Identification of potential treatments for COVID-19 through artificial intelligence-enabled phenomic analysis of human cells infected with SARS-CoV-2” (2020)
